Laboratory results published in paper PMC5856089.
No constants are given. Whether binding was seen depends on the method and setting. For some assays here: Binding seen in cells or lysates may run through a third protein. Some entries that bind do so weakly or less than the wild type. For some assays here: Where a sequence is shown, tags or fusion partners need not be part of it. One block for each molecule: values may come before it.

Columns and labels:
[1] = molecular target: C-luc ΔApaf-1 (truncated Apaf-1 lacking both WD-40 subdomains, fused to the C-terminal fragment of luciferase) (UniProt O14727); assay: SEC; S-100 extracts with N-luc ΔApaf-1 and C-luc ΔApaf-1 mixed 1:1, with or without cytochrome c and dATP, 15 min at 25 °C; Sephacryl 300 HR column; fractions (∼700 kDa to 158 kDa) immunoblotted
[2] = molecular target: endogenous Apaf-1 (human (endogenous in HEK 293)) (UniProt O14727); assay: as above
[3] = molecular target: T1, C-luc Apaf-1 (full length Apaf-1 fused through its N-terminus to the C-terminal fragment, amino acids 395-550, of P. pyralis luciferase, with C-terminal His-tag), O14727; assay: SEC; data not shown: extracts with N-luc and C-luc full length Apaf-1, upon addition of cytochrome c and dATP; Sephacryl 300; details: remark: other sources report otherwise
T1 chain: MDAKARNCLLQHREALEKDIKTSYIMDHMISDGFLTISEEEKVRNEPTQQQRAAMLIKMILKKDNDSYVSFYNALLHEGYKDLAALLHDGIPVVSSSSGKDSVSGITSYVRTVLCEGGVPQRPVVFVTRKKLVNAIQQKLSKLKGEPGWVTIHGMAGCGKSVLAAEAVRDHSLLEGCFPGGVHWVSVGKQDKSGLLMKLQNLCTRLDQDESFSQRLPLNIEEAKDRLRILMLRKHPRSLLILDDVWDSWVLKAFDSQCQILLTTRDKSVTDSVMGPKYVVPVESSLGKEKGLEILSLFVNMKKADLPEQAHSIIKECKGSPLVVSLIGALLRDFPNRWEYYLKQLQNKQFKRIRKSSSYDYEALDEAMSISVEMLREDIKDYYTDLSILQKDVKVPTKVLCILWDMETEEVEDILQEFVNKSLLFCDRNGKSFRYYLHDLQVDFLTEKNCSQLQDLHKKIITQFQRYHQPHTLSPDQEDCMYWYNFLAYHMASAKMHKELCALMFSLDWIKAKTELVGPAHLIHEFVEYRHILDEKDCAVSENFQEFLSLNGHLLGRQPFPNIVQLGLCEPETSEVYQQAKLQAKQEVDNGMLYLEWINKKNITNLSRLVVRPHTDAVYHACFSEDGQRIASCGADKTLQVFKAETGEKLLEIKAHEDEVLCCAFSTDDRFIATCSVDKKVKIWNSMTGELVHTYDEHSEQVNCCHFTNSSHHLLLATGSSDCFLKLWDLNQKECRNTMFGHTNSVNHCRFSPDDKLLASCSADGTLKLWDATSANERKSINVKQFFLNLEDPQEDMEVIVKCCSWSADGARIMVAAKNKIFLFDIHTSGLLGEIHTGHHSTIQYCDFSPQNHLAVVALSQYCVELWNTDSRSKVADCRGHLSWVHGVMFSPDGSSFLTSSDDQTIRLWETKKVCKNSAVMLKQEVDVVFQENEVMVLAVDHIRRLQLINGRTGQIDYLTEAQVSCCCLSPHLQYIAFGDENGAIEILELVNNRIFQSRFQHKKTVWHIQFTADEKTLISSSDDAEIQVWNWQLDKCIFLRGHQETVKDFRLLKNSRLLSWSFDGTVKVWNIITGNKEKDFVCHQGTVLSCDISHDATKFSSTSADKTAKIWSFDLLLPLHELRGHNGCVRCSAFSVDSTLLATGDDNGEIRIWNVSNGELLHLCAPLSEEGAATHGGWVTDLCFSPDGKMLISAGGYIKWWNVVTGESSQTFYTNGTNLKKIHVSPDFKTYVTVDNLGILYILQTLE

[4] = molecular target: T1, C-luc Apaf-1 (full length Apaf-1 fused …); assay: pull-down; mixtures of cell extracts activated with or without cytochrome c and dATP (15 min, 25 °C), incubated with Ni-NTA agarose 1-2 h at 4 °C (His-tag on C-luc Apaf-1); washed with 20 mM and 165 mM imidazole; fractions immunoblotted with anti-Apaf-1; details: remark: other sources report otherwise

binding [1]: binds
binding [2]: binds
Molecule: N-luc ΔApaf-1 (truncated Apaf-1 lacking both WD-40 subdomains, fused to the N-terminal fragment of luciferase) (from UniProt O14727 1-589) (domain or fragment)

binding [2]: binds
Molecule: C-luc ΔApaf-1 (truncated Apaf-1 lacking both WD-40 subdomains, fused to the C-terminal fragment of luciferase) (from UniProt O14727 1-589) (domain or fragment)

binding [3]: binds
binding [4]: binds
B1: N-luc Apaf-1 (full length Apaf-1 fused through its N-terminus to the N-terminal fragment, amino acids 1-416, of P. pyralis luciferase), O14727 1-1248 (natural protein)
chain: T1 chain
